# Laboratory results taken from PubChem BioAssay AID504467 (National Center for Advancing Translational Sciences (NCATS), 2011).
# Among all 330,000 compounds or so, about 7,700 (2.3%) were called active. The inconclusive results got no clear call from the source; some entries with a clear call stand among them for comparison. Calls come from the whole dose curve; as a rule, active = well fitted inhibition curve with a large enough effect; inconclusive = small, poorly fitted or top-dose-only effect, or effect the other way; inactive = flat fitted curve, though single readings scatter. Where the call is inconclusive, the potency comes from a doubtful curve fit.
# Assay: qHTS screen for small molecules that inhibit ELG1-dependent DNA repair in human embryonic kidney (HEK293T) cells expressing luciferase-tagged ELG1; note: nearly all actives have a fitted effect of over 55% in size
# Settings: HEK293T ELG1-luciferase reporter, luminescence, 16 h, DNA damage induced by 5-fluorouridine; activity change, negative = inhibition: at 46.1 µM (top of the series)
# Summary of the method: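 Reporter activity after DNA damage by 5-fluorouridine is monitored. Compound-treated cells incubate 16 hr at 37 °C, then ONE-Glo is added for 30 min before luminescence reading.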
# % is set by controls: 0 for no effect and ±100 for the full control effect; potency is the fitted concentration of half-maximal effect.
Compound,"activity change, negative = inhibition",Potency
COCCN(CC(=O)Nc1cccc(C)c1C)C(=O)c1cc2c(s1)CCC2,inactive: 5.14%,
Cc1ccc(NC(=O)C(=O)NCC2CCCN2S(=O)(=O)c2cccs2)cc1C (stereo unspecified),,"inconclusive: 20.6 µM [inhibitor, single point]"
CCC(C)NC(=S)Nc1ccc(F)cc1 (stereo unspecified),,"inconclusive: 29.1 µM [inhibitor, single point]"
O=C(NCCc1ccccc1)C1CCN(Cc2cccc3ccccc23)CC1,inactive: -20.7%,
C/C(=N\Nc1nc(-c2ccccn2)nc2ccccc12)c1ccc(F)cc1,inactive: -5.96%,
Cc1cccn2cc(-c3cccc(NC(=O)c4cccs4)c3)nc12,,"inconclusive: 18.3 µM [inhibitor, single point]"
COc1cccc(CN2CCNC(=O)C2CC(=O)N(C)C2CCOCC2)c1OC (stereo unspecified),inactive: 5.75%,
Cc1cccc(CSc2nc3nc(C)cc(C)n3n2)c1,,"inconclusive: 18.3 µM [activator, partial curve, poor fit]"
COc1ccc(-c2noc(CCC(=O)N3CCN(c4ccc(F)cc4)CC3)n2)cc1,inactive: 19.7%,
Cc1nc(-c2ccc(-c3ccon3)s2)no1,,"inconclusive: 11.6 µM [activator, partial curve]"
COC(=O)c1cc(N=C(N)N=C(N)N)cc(C(=O)OC)c1,inactive: 19.9%,
Cc1nn(Cc2ccc(Cl)cc2)c(Cl)c1/C=N/NC(=O)c1cccnc1,,"inconclusive: 14.6 µM [inhibitor, partial curve]"
O=C(CSc1nccn1Cc1ccco1)Nc1ccccc1,,"inconclusive: 14.6 µM [activator, partial curve, poor fit]"
COc1cccc(NC2=Nc3cccc4cccc2c34)c1,,"inconclusive: 18.4 µM [activator, partial curve, poor fit]"
CC1C(=O)CC(c2ccccc2)N(C)C1c1ccccc1 (stereo unspecified),inactive: -2.35%,
NNC(=O)c1cccc(COc2ccccc2Br)c1,,"inconclusive: 1.16 µM [activator, full curve]"
O=C(Nc1nc2c(s1)CCCC2)c1nn(Cc2ccccc2)c(=O)c2ccccc12,,"inconclusive: 9.2 µM [inhibitor, partial curve, poor fit]"
COc1cc(C=C(c2nc3ccccc3s2)c2nc3ccccc3s2)cc(OC)c1O,,"inconclusive: 11.6 µM [inhibitor, partial curve]"
Cn1c(=O)[nH]c(=O)c2c1nc(SCC(O)CO)n2CCCc1ccccc1 (stereo unspecified),,"inconclusive: 31.6 µM [activator, single point]"
COc1ccccc1NC(=O)Nc1nc(CC(=O)NCc2cccnc2)cs1,inactive: -2.53%,
CC(C)Cn1c(CCCNC(=O)c2ccc(F)cc2)nc2ccccc21,inactive: -16.2%,
Fc1cccc(F)c1/C=C/c1ccc2ccccc2n1,,"inconclusive: 1.3 µM [activator, partial curve]"
COc1ccccc1NC(=O)Nc1nc(CC(=O)NC2CCCC2)cs1,inactive: 8.73%,
COc1ccc(OCC(=O)O/N=C(\N)Cc2cccs2)cc1,,"inconclusive: 18.4 µM [activator, single point]"

# In a second layout: entries from further up.
Compound | activity change, negative = inhibition | Potency
Cc1nn(Cc2ccc(Cl)cc2)c(Cl)c1/C=N/NC(=O)c1cccnc1 |  | inconclusive: 14.6 µM [inhibitor, partial curve]
O=C(CSc1nccn1Cc1ccco1)Nc1ccccc1 |  | inconclusive: 14.6 µM [activator, partial curve, poor fit]
COc1cccc(NC2=Nc3cccc4cccc2c34)c1 |  | inconclusive: 18.4 µM [activator, partial curve, poor fit]
CC1C(=O)CC(c2ccccc2)N(C)C1c1ccccc1 (stereo unspecified) | inactive: -2.35% | 
NNC(=O)c1cccc(COc2ccccc2Br)c1 |  | inconclusive: 1.16 µM [activator, full curve]

# More records:

Compound,"activity change, negative = inhibition",Potency
CC1(C(=O)CSc2nc3ccccc3[nH]2)CCC(=O)O1 (stereo unspecified),inactive: 23.4%,
Cc1cccc(N2CCN(Cc3nc(C4CC4)no3)CC2)n1,,"inconclusive: 23.1 µM [inhibitor, single point]"
Cc1cc(Br)c2[nH]c3c(c2c1)CCCC3=O,,"inconclusive: 18.4 µM [activator, single point]"
CC(=O)N(c1ccc2oc(=O)sc2c1)S(=O)(=O)c1cccs1,inactive: 5.4%,
Cc1ccc(NC(=O)N2CCc3ccccc3C2)cc1,,"inconclusive: 2.91 µM [activator, partial curve]"
O=Cc1cn[nH]c1-c1cccc([N+](=O)[O-])c1,,"inconclusive: 11.6 µM [inhibitor, partial curve]"
Cc1ccc(N=N/C(=C\O)C(=O)c2ccncc2)cc1,,"inconclusive: 18.4 µM [inhibitor, partial curve, poor fit]"
O=C(CCl)c1ccc2c(c1)CCN2C(=O)C1CC1,,"inconclusive: 20.6 µM [activator, partial curve]"
CC(NC(=O)Nc1nnc(C(F)(F)F)s1)(C(F)(F)F)C(F)(F)F,,active: 5.17 µM
CN(Cc1ccco1)c1ncnc2ccc(-c3ccoc3)cc12,,"inconclusive: 0.259 µM [inhibitor, full curve]"
COc1ccc(Nc2nc(NCc3ccco3)nc(N/N=C/c3ccccc3Cl)n2)cc1,,"inconclusive: 29.1 µM [inhibitor, single point]"
O=c1c2c3c(sc2nc(NCCO)n1Cc1ccco1)CCCCC3,,"inconclusive: 13 µM [activator, partial curve]"
CC(C)Cc1cc(C(=O)NCCN2CCOCC2)no1,,"inconclusive: 29.1 µM [activator, single point]"
COC(=O)CCc1cccc(CCC(=O)OC)c1,,"inconclusive: 2.06 µM [activator, single point]"
CC1CCc2c(sc3ncnc(SCC(=O)N(C)C4CCS(=O)(=O)C4)c23)C1 (stereo unspecified),,"inconclusive: 25.9 µM [inhibitor, partial curve, poor fit]"
CCC(=O)Nc1cccc(NC(=S)NC(=O)c2ccccc2)c1,,"inconclusive: 4.11 µM [activator, full curve]"
Cc1ccc(NC(=S)NC(=O)c2ccc(F)cc2)cc1S(=O)(=O)Nc1cccc(Cl)c1,,"inconclusive: 9.2 µM [inhibitor, partial curve, poor fit]"
COc1ccc2[nH]c(=O)c(CN(CCN3CCCC3)C(=O)Nc3ccccc3Cl)cc2c1,,"inconclusive: 35.5 µM [inhibitor, single point]"
CCCCCn1c(CN(C)Cc2ccccc2)nc2c1c(=O)n(C)c(=O)n2C,,active: 18.4 µM
CC(C)(C)c1ccc(C(=O)Nc2ccc(NC(=O)c3ccco3)cc2)cc1,inactive: 14.1%,
CCCN(C(=O)c1ccccc1N)c1c(C)n(C)n(-c2ccccc2)c1=O,,"inconclusive: 8.2 µM [activator, partial curve, poor fit]"
CN(C)c1ccc(NC(=O)c2ccc([N+](=O)[O-])cc2Cl)cc1,,"inconclusive: 5.17 µM [activator, partial curve]"
COc1ccc(OCc2cc(C(=O)N3CCOCC3)no2)c(Cl)c1,,"inconclusive: 7.3 µM [activator, partial curve]"
COc1c(C)cc(C(=O)C2CCCN(C(=O)CCc3scnc3C)C2)cc1C (stereo unspecified),,active: 11.6 µM

Compound,"activity change, negative = inhibition",Potency
O=C(O)c1ccccc1CSc1nc2ccccc2s1,,"inconclusive: 20.6 µM [activator, partial curve]"
CC(=O)c1ccc(-c2csc(N3CCC(C(N)=O)CC3)n2)cc1,,"inconclusive: 18.3 µM [activator, single point]"
FC(F)(F)c1cc(NC2CCCCC2)ccn1,,active: 8.2 µM
COc1ccc(C(C)(C)C)cc1NC(=O)CCc1c(C)noc1C,inactive: -0.307%,
O=C(O)c1ccc(Cl)c(S(=O)(=O)Nc2ccc(OCc3ccccc3)cc2)c1,,"inconclusive: 23.1 µM [activator, partial curve]"
COc1ccc(Nc2nc(N)c3ccccc3n2)c(OC)c1,,"inconclusive: 8.2 µM [activator, partial curve]"
Cc1cccc2cc3c(N)c(C(=O)N4CCc5ccccc54)sc3nc12,inactive: -2.42%,
Cc1cc(C(=O)Nc2cccc3c2O[C@H](CN(C)CC2CC2)[C@@H](C)CN([C@H](C)CO)C3=O)n(C)n1,inactive: 20%,
COc1ccc(-c2nnc(SCC(=O)N3c4ccccc4Sc4ccccc43)o2)cc1,,"inconclusive: 20.6 µM [inhibitor, partial curve]"
CN(C)c1ccc(C2=NOC(CN3C(=O)c4ccccc4S3(=O)=O)C2)cc1 (stereo unspecified),,"inconclusive: 3.26 µM [activator, full curve]"
COc1ccc(C(=O)NCCNc2ccc([N+](=O)[O-])cc2)cc1,inactive: 1.35%,
O=C(O)c1ccc(Cl)c(S(=O)(=O)Nc2ccccc2Cc2ccccc2)c1,inactive: 7.67%,
Cc1ccc(C(=O)N/C(N)=N/c2nc3ccccc3o2)cc1,,"inconclusive: 20.6 µM [activator, partial curve]"
Cc1ccc(C)c(N2CCN(CC(=O)Nc3ccc([N+](=O)[O-])cc3C(=O)Nc3ccccc3F)CC2)c1,,"inconclusive: 18.4 µM [inhibitor, single point]"
COc1ccc(-c2csc(N3C(=N)SCC3=O)n2)cc1,,"inconclusive: 2.06 µM [activator, partial curve]"
C=CCN(CC=C)CCOc1ccc(C)cc1[N+](=O)[O-],,"inconclusive: 29.1 µM [activator, single point]"
Cc1ccc(C(=O)O/N=C(\N)c2ccccn2)c(Cl)c1,,"inconclusive: 0.13 µM [activator, full curve, poor fit]"
O=C(Nc1ccc(N2CCOCC2)cc1)c1cc(F)c(F)cc1Cl,,"inconclusive: 20.6 µM [activator, partial curve]"
Cc1cc(C)c2cc(CN(Cc3ccco3)C(=S)NCC3CCCO3)c(=O)[nH]c2c1 (stereo unspecified),,"inconclusive: 20.6 µM [inhibitor, single point]"
COc1cccc(OCC(O)CN2CCN(CCN3C(=O)c4cccc5cccc(c45)C3=O)CC2)c1 (stereo unspecified),,"inconclusive: 29.1 µM [inhibitor, partial curve, poor fit]"
O=C(CCCC(=O)OCC(=O)c1ccc(F)cc1)Nc1cc(C(F)(F)F)ccc1Cl,inactive: 11%,
COc1ccccc1CNC(=O)c1ccc(N2CCOCC2)c([N+](=O)[O-])c1,inactive: 5.27%,
COc1ccccc1Oc1ccc(N/C=C/C(=O)c2ccco2)cc1,,"inconclusive: 5.8 µM [activator, full curve]"
